Results of single-concentration screens

Chains of the proteins cited; added tags and fusions are not shown. Residues count along the entry.
UniProt Q4DA54, 1-478: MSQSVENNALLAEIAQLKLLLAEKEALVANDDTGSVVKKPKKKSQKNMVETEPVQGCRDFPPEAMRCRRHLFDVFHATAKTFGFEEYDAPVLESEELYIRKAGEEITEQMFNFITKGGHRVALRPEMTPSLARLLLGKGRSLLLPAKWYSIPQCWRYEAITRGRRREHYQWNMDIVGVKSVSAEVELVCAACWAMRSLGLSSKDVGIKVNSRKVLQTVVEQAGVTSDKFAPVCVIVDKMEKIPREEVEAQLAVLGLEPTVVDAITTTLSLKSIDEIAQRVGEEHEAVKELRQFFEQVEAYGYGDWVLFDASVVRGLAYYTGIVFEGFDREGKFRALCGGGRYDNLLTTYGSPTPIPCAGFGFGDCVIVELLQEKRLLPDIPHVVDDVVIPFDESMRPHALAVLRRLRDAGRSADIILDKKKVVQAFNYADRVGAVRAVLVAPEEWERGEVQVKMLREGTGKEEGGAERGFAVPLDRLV

The values are deposited in ChEMBL (CHEMBL3988442, “University of Dundee, Small-Polar-MMV Screening Library” (2021)).

Values are the deposited “Percent Effect”, in %. The controls that fix the scale are not given in the record; negative values are as filed. This is an unselected part of the compounds tested.

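Histidine-tRNA ligase, Trypanosoma cruzi CL Brener (UniProt Q4DA54). Enzyme assay of histidyl-tRNA synthetase; the read-out is not stated. Concentration: 30 µM. Higher reads as stronger inhibition (inferred: compounds with an IC50 in retests scored well above the rest). Size under these conditions: about 69,000 compounds, about 31 of them at 50% or above in at least one test.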

With O=C(Cc1cccc(F)c1)N1CCc2ncnc(NC3CC3)c2CC1 the screen gave 15.87%. Result for CN(Cc1ccncc1)C1CC2(CCN(Cc3ccccn3)CC2)C1 was -2.941%. With CN(Cc1ccco1)[C@@H]1CN(C(=O)c2cnccn2)C[C@@H]2CCCO[C@@H]21 the screen gave 4.386%. Cc1ccc(C(=O)NC2CCCN(c3ncccn3)C2)cn1 (stereo not shown) gave -2.041%. For O=C(c1cc[nH]n1)N1CCC(c2cc(Nc3ccccn3)n[nH]2)CC1 the result was 3.042%.

With Cc1ccc(C(=O)N2CC[C@@]3(O)CCN(C(=O)N(C)C)C[C@H]3C2)cc1Cl the screen gave 8.671%. With Cc1nn(C)c(C)c1CCC(=O)N(C)Cc1ccc2nsnc2c1 the screen gave 0.5236%. CCCS(=O)(=O)N1C[C@@H](c2ccccc2)[C@@]2(CCNC2=O)C1 gave 6.349%. For CC(C)CN1CC(O)CN(S(=O)(=O)c2ccccc2)CC1=O (stereo not shown) the result was 4.494%. O=C(c1ccc(F)cc1)N1CCOC(c2nc(-c3ncccn3)no2)C1 (stereo not shown) gave 6.667%.

Result for CC(NC(=O)N1CCC(CO)CC1)c1csc2ccccc12 (stereo not shown) was 3.704%. CCc1nccn1C1CCCN(C(=O)c2ccc3c(c2)nnn3C)C1 (stereo not shown) read 3.448%. With OCC(CO)N1CCCC(Cc2cnc(Nc3ccccn3)cn2)C1 (stereo not shown) the screen gave 12.12%. With Cc1[nH]ccc1C(=O)N1CCCC(c2nccn2Cc2cscn2)C1 (stereo not shown) the screen gave 0%. CC(C)CCN1CC2(CCCN(C(=O)CNC(=O)N(C)C)C2)CCC1=O (stereo not shown) read 6.154%.

Result for O=C(NS(=O)(=O)c1ccc2c(c1)OCCO2)c1ccc(Br)cc1F was -3.383%. For CCCn1nc2c(cc1=O)CN(CC(=O)Nc1nnc(C)s1)CC2 the result was 5.703%. With CCC(=O)N1CCC2(CCC(N3CCCC3)c3ccccc32)CC1 (stereo not shown) the screen gave 3.681%. O=C(CNc1ccccc1Cl)Nc1cc(-n2cnnn2)ccc1F gave 4.294%. For COc1cc(F)c(NC(=O)N(C)CCNC(=O)N(C)C)cc1F the result was -1.667%.

CC(=O)N1CCC(Nc2cc(F)ccc2OCC2CCCO2)CC1 (stereo not shown) gave 2.286%. With CCOc1ccc(CNC(=O)N(C)CC(C)(C)O)cc1C the screen gave -4.294%. Cc1noc(CNC(=O)NCC2(C)CCCc3ccccc32)n1 (stereo not shown) gave -2.083%. CN(C)C[C@@H]1CN(C(=O)c2cc(F)ccc2F)C[C@@H]1CO gave 3.093%. For O=C(NCCN1CCOCC1)c1ccn(-c2ccccc2F)n1 the result was 3.922%.

With CS(=O)(=O)NCCNC(=O)c1ccc(OCc2ccccc2)nc1 the screen gave 6.897%. O=C(NCCCn1cccn1)N1CCCC1c1cccs1 (stereo not shown) gave 6.667%. With COc1cc(CNC(=O)N2CCCC2c2cc(C)no2)ccn1 (stereo not shown) the screen gave 18.39%. For COc1ccccc1CN1C[C@@H]2CN(C(C)=O)CCO[C@@H]2C1 the result was 7.735%. Cc1cc(C2CCCN(CCCS(C)(=O)=O)C2)n[nH]1 (stereo not shown) read 5.233%.

For Cn1ccnc1SCCNC1CCN(c2nc3ccccc3s2)CC1 the result was 7.65%. With CS(=O)(=O)Nc1ccc([C@H]2OCC(=O)N[C@@H]2CO)cc1 the screen gave 7.463%. Result for CCS(=O)(=O)N1CCC[C@]2(C(=O)N(C)C)CN(c3ncccn3)C[C@@H]2C1 was 2.703%. COc1ccccc1CCN(C)C(=O)NC(C)c1nncn1C (stereo not shown) gave -1.132%. With CN(Cc1cccnc1N)Cc1cccc2ncccc12 the screen gave 2.488%.

For O=C(c1ccc(NCc2cccc(F)c2)cc1)N1CCC(CO)CC1 the result was 3.867%.